Laboratory results taken from patent publication US11292821B2, “Peptides and combination of peptides for use in immunotherapy against lung cancer, including NSCLC, SCLC and other cancers” (Immatics Biotechnologies GmbH, priority 2017, dated 2022).

tested on: tumor tissue samples; assay: Identification and relative quantitation of HLA-presented tumor associated peptides by LC-MS (presentation profile); design: species or system human; conditions: HLA-B*07 cancer tissues vs HLA-B*07 normal samples (N=13 normal, N=36 tumor); FIGS. 1I-1J

Row | Substance | over-presentation of peptide in cancer tissues compared to normal samples
1 | SEQ ID NO.: 475 (RPHKPGLYL; listed as Homo sapiens) | over-presentation

same assay, conditions: cancer entities on which the tumor-associated peptide was found presented (HLA ligandome LC-MS); abbreviations per table footnote

Row | Substance | Peptide Presentation on cancer entities
2 | 447 (VVDEDHELIY; listed as Homo sapiens) [compound 447] | GBM
3 | 190 (VTDGINPLIDRY; listed as Homo sapiens) [compound 190] | MEL
4 | 263 (HPAPYGDLL; listed as Homo sapiens) [compound 263] | UEC
5 | 56 (VYMIEPLEL; listed as Homo sapiens) [compound 56] | GBM, NHL
6 | 443 (TTDFPSESSFEY; listed as Homo sapiens) [compound 443] | GC, MEL, NHL, OC, PRCA, UEC
7 | 418 (LSDPSGPKSY; listed as Homo sapiens) [compound 418] | GBM, HCC, PRCA
8 | 145 (FVDKPVAY; listed as Homo sapiens) [compound 145] | GBM, GC, MEL
9 | 391 (SLIDMRGIETV; listed as Homo sapiens) [compound 391] | BRCA, CLL, GBM, HCC, HNSCC, OC, UBC
10 | 486 (SEDDPILQI; listed as Homo sapiens) [compound 486] | NHL, OC, UEC
11 | 479 (AEIQPQTQV; listed as Homo sapiens) [compound 479] | UEC
12 | 179 (STAKSATWTY; listed as Homo sapiens) [compound 179] | PRCA
13 | 411 (GTVYEDLRY; listed as Homo sapiens) [compound 411] | GBM, GC, HCC, MEL, NHL, OC, OSCAR
14 | 440 (TLDENPGVRY; listed as Homo sapiens) [compound 440] | GBM, GC, HCC, MEL, NHL, PRCA, UEC
15 | 137 (ATSKFMEFY; listed as Homo sapiens) [compound 137] | GBM, MEL, OC, PRCA, UEC
16 | 289 (VPENHSVAL; listed as Homo sapiens) [compound 289] | UEC
17 | 212 (KAYEQVMHY; listed as Homo sapiens) [compound 212] | UEC
18 | 124 (SVASVLLYL; listed as Homo sapiens) [compound 124] | AML, BRCA, CLL, HCC, HNSCC, NHL, OC
19 | 159 (LSDTSVIQFY; listed as Homo sapiens) [compound 159] | GBM, GC, HCC, MEL, NHL, PRCA
20 | 215 (MMFSGPQILKL; listed as Homo sapiens) [compound 215] | MEL
21 | 390 (HIMPTVHTV; listed as Homo sapiens) [compound 390] | BRCA, CLL, GBM, HCC, HNSCC, MEL, NHL, OC, OSCAR, UBC, UEC
22 | 113 (AVLTGLVEV; listed as Homo sapiens) [compound 113] | BRCA, CLL, CRC, GC, HCC, NHL, OSCAR, RCC, UEC
23 | 133 (MTLPVDAVISV; listed as Homo sapiens) [compound 133] | CLL, CRC, HCC, HNSCC, NHL, PRCA, UEC
24 | 150 (GTELLSLVY; listed as Homo sapiens) [compound 150] | GC, MEL, NHL, OC, PRCA, UEC

Row | Substance | Peptide Presentation on cancer entities
25 | 140 (ESDREELNY; listed as Homo sapiens) [compound 140] | GC, PRCA
26 | 348 (AEIQGNINHV; listed as Homo sapiens) [compound 348] | UEC
27 | 149 (GTEFTTVLY; listed as Homo sapiens) [compound 149] | GC, HNSCC, MEL, OSCAR, PRCA
28 | 218 (KTLVAELLILK; listed as Homo sapiens) [compound 218] | AML, NHL, UEC
29 | 216 (KLYAWELAF; listed as Homo sapiens) [compound 216] | AML, GBM, MEL, OC, PRCA
30 | 379 (NYIVPDKQIF; listed as Homo sapiens) [compound 379] | GBM, GC, HCC, MEL, OC, PRCA
31 | 404 (ETARKFLYY; listed as Homo sapiens) [compound 404] | GBM
32 | 474 (LPRLLPAL; listed as Homo sapiens) [compound 474] | AML, NHL
33 | 256 (SPRVPSIEL; listed as Homo sapiens) [compound 256] | NHL
34 | 121 (ALVDTLTGI; listed as Homo sapiens) [compound 121] | HNSCC, NHL, UEC
35 | 142 (EVAEPSVLFDLY; listed as Homo sapiens) [compound 142] | GC, MEL, NHL, OC, UEC
36 | 98 (LQSSGLTLLL; listed as Homo sapiens) [compound 98] | GBM, OC, PRCA
37 | 128 (FLGTTPTL; listed as Homo sapiens) [compound 128] | AML, CLL, GBM, HNSCC, NHL, OC, UBC, UEC
38 | 6 (KYKDYFPVI; listed as Homo sapiens) [compound 6] | HCC
39 | 470 (SPNSYFRVL; listed as Homo sapiens) [compound 470] | RCC
40 | 19 (ILKEDPFLF; listed as Homo sapiens) [compound 19] | OC, RCC
41 | 115 (MLLETQDALYV; listed as Homo sapiens) [compound 115] | HNSCC
42 | 62 (LYQEILAQL; listed as Homo sapiens) [compound 62] | AML, GBM, GC, HCC, MEL, PRCA, RCC
43 | 283 (RPHSLSSEL; listed as Homo sapiens) [compound 283] | AML, NHL
44 | 54 (LLIKLLQTF; listed as Homo sapiens) [compound 54] | AML, GBM, MEL, OC, PRCA, RCC
45 | 125 (VLQPFLPSI; listed as Homo sapiens) [compound 125] | AML, BRCA, CCC, CLL, CRC, HCC, HNSCC, MEL, NHL, OC, RCC
46 | 432 (NVDPVQHTY; listed as Homo sapiens) [compound 432] | GBM, GC, HCC, HNSCC, MEL, NHL, OC, OSCAR, PRCA, RCC, UEC
47 | 95 (ITIGVLARV; listed as Homo sapiens) [compound 95] | CRC, PACA

Row | Substance | Peptide Presentation on cancer entities
48 | 461 (RPILIIVTL; listed as Homo sapiens) [compound 461] | NHL
49 | 198 (YLDPVQRDLY; listed as Homo sapiens) [compound 198] | GBM, GC, HCC, MEL, NHL, OC, UEC
50 | 464 (YPRPGTPAA; listed as Homo sapiens) [compound 464] | AML, GC, MEL, NHL, OC, RCC
51 | 217 (RILNQILYY; listed as Homo sapiens) [compound 217] | AML, GBM, GC, HCC, MEL, NHL, PRCA, UEC
52 | 122 (ALLEMFPEITV; listed as Homo sapiens) [compound 122] | BRCA, OC, PRCA
53 | 79 (RYLADLPTL; listed as Homo sapiens) [compound 79] | GC, HCC, OC, UEC
54 | 380 (VFQEKHHVI; listed as Homo sapiens) [compound 380] | PRCA
55 | 23 (KFIISDWRF; listed as Homo sapiens) [compound 23] | MEL
56 | 328 (FEYDFLLQRI; listed as Homo sapiens) [compound 328] | UEC
57 | 105 (SLLTHIPTA; listed as Homo sapiens) [compound 105] | AML, CRC, HNSCC, MEL, OC, OSCAR, RCC, UBC, UEC
58 | 435 (QTDDTWRTEY; listed as Homo sapiens) [compound 435] | GBM, GC, MEL, NHL, PRCA
59 | 323 (SEFMQVIF; listed as Homo sapiens) [compound 323] | NHL
60 | 187 (VADLHLYLY; listed as Homo sapiens) [compound 187] | GC, MEL, OC, PRCA, RCC
61 | 445 (VLDQGKITEY; listed as Homo sapiens) [compound 445] | GBM, HCC
62 | 146 (GLNTGSALSY; listed as Homo sapiens) [compound 146] | GC, OC
63 | 68 (IYQQIIQTY; listed as Homo sapiens) [compound 68] | GC, MEL, UEC
64 | 417 (LLEDKHFQSY; listed as Homo sapiens) [compound 417] | GBM, GC, HCC, MEL, NHL, OC, PRCA, UEC
65 | 99 (FLKEKVPGI; listed as Homo sapiens) [compound 99] | CLL, GC, MEL, NHL
66 | 155 (LLDPNPHMY; listed as Homo sapiens) [compound 155] | PRCA
67 | 389 (TLMEQPLTTL; listed as Homo sapiens) [compound 389] | AML, BRCA, CRC, HCC, HNSCC, NHL, OC, PRCA, UEC
68 | 412 (ILDEVIMGY; listed as Homo sapiens) [compound 412] | GBM, GC, MEL, NHL, OC, OSCAR
